The structures appear in SMILES notation.

In this data set the test system is patients with advanced renal cell carcinoma. Put plainly: METEOR (Study 1) safety: adverse reactions, laboratory abnormalities, dose modifications.

Consider `CO[C@H]1C[C@@H]2CC[C@@H](C)[C@@](O)(O2)C(=O)C(=O)N2CCCC[C@H]2C(=O)O[C@H]([C@H](C)C[C@@H]2CC[C@@H](OCCO)[C@H](OC)C2)CC(=O)[C@H](C)/C=C(\C)[C@@H](O)[C@@H](OC)C(=O)[C@H](C)C[C@H](C)/C=C/C=C/C=C/1C` [everolimus], for which the “Median average daily dose” value worked out at 9.4 mg (Asia Pacific), 9.1 mg (Europe) and 8.7 mg (North America). Further, the “Median duration of exposure” value (Asia Pacific) stood at 24 wks; the “Median duration of exposure” value (Europe) was 21 wks; the “Median duration of exposure” value (North America) is 16 wks; the “Median duration of exposure” value (cutoff Dec. 31, 2015) is 4.2 months; the “Median duration of exposure” value (patients enrolled in Canada) stood at 3.7 mo. The “Median duration of treatment” value (Study 1 label data) is recorded as 4.4 months.
`COc1cc2nccc(Oc3ccc(NC(=O)C4(C(=O)Nc5ccc(F)cc5)CC4)cc3)c2cc1OC` [cabozantinib]: the “Median average daily dose” value is, setting by setting: (Asia Pacific) 41.0 mg; (Europe) 43.6 mg; (North America) 43.3 mg. Besides, the “Median duration of exposure” value is listed as 56 wks (Asia Pacific); 33 wks (Europe); 39 wks (North America); 8.3 months (cutoff Dec. 31, 2015); 9.2 mo (patients enrolled in Canada).
